Reference: US8637484B2, “Modulation of growth hormone receptor expression and insulin-like growth factor expression” (Antisense Therapeutic Limited, priority 2003, dated 2014)
Some of these results come from one statement about several compounds together. In the oligonucleotide strings, read from the 5' end, every base follows the letter of its sugar. An asterisk marks phosphorothioate; unmarked linkages are phosphodiester. Other units and linkages are bracketed, terminal groups are in braces. A string of capitals states the bases alone. e = 2'-O-(2-methoxyethyl) (MOE); [5mC] = 5-methylcytosine; d = 2'-deoxy (DNA)

Tested on: human growth hormone receptor mRNA
Test: Inhibition of human growth hormone receptor mRNA levels in MCF7 cells, quantitative real-time PCR
Assay type: cell-based
Set-up: concentration or dose not given beside the values
Details: averages from three experiments
Protocol: The human breast carcinoma cell line MCF-7 was obtained from the American Type Culture Collection (Manassas, Va.). MCF-7 cells were routinely cultured in DMEM low glucose (Gibco/Life Technologies, Gaithersburg, Md.) supplemented with 10% fetal calf serum (Gibco/Life Technologies, Gaithersburg, Md.). Cells were routinely passaged by trypsinization and dilution when they reached 90% confluence. Cells were seeded into 96-well plates (Falcon-Primaria #3872) at a density of 7000 cells/well for use in RT-PCR analysis.
When cells reached 65-75% confluency, they were treated with oligonucleotide. For cells grown in 96-well plates, wells were washed once with 100 μL OPTI-MEM™-1 reduced-serum medium (Invitrogen Corporation, Carlsbad, Calif.) and then treated with 130 μL of OPTI-MEM™-1 containing 3.75 μg/mL LIPOFECTIN™ (Invitrogen Corporation, Carlsbad, Calif.) and the desired concentration of oligonucleotide. Cells are treated and data are obtained in triplicate. After 4-7 hours of treatment at 37° C., the medium was replaced with fresh medium. Cells were harvested 16-24 hours after oligonucleotide treatment.
Total RNA was isolated using an RNEASY 96™ kit and buffers purchased from Qiagen Inc. (Valencia, Calif.) following the manufacturer's recommended procedures. Briefly, for cells grown on 96-well plates, growth medium was removed from the cells and each well was washed with 200 μL cold PBS. 150 μL Buffer RLT was added to each well and the plate vigorously agitated for 20 seconds. 150 μL of 70% ethanol was then added to each well and the contents mixed by pipetting three times up and down. The samples were then transferred to the RNEASY 96™ well plate attached to a QIAVAC™ manifold fitted with a waste collection tray and attached to a vacuum source. Vacuum was applied for 1 minute. 500 μL of Buffer RW1 was added to each well of the RNEASY 96™ plate and incubated for 15 minutes and the vacuum was again applied for 1 minute. An additional 500 μL of Buffer RW1 was added to each well of the RNEASY 96™ plate and the vacuum was applied for 2 minutes. 1 mL of Buffer RPE was then added to each well of the RNEASY 96™ plate and the vacuum applied for a period of 90 seconds. The Buffer RPE wash was then repeated and the vacuum was applied for an additional 3 minutes. The plate was then removed from the QIAVAC™ manifold and blotted dry on paper towels. The plate was then re-attached to the QIAVAC™ manifold fitted with a collection tube rack containing 1.2 mL collection tubes. RNA was then eluted by pipetting 140 μL of RNAse free water into each well, incubating 1 minute, and then applying the vacuum for 3 minutes.
Quantitation of growth hormone receptor mRNA levels was accomplished by real-time quantitative PCR using the ABI PRISM™ 7600, 7700, or 7900 Sequence Detection System (PE-Applied Biosystems, Foster City, Calif.) according to manufacturer's instructions. This is a closed-tube, non-gel-based, fluorescence detection system which allows high-throughput quantitation of polymerase chain reaction (PCR) products in real-time. As opposed to standard PCR in which amplification products are quantitated after the PCR is completed, products in real-time quantitative PCR are quantitated as they accumulate. This is accomplished by including in the PCR reaction an oligonucleotide probe that anneals specifically between the forward and reverse PCR primers, and contains two fluorescent dyes. A reporter dye (e.g., FAM or JOE, obtained from either PE-Applied Biosystems, Foster City, Calif., Operon Technologies Inc., Alameda, Calif. or Integrated DNA Technologies Inc., Coralville, Iowa) is attached to the 5′ end of the probe and a quencher dye (e.g., TAMRA, obtained from either PE-Applied Biosystems, Foster City, Calif., Operon Technologies Inc., Alameda, Calif. or Integrated DNA Technologies Inc., Coralville, Iowa) is attached to the 3′ end of the probe. When the probe and dyes are intact, reporter dye emission is quenched by the proximity of the 3′ quencher dye. […]

Substance | % INHIB
gctgtatgggtcctaggttc (eG*e[5mC]*eT*eG*eT*dA*dT*dG*dG*dG*dT*d[5mC]*d[5mC]*dT*dA*eG*eG*eT*eT*e[5mC]; antisense) [ISIS 272308] | at least 45%
gctatttttggctatagaaa (eG*e[5mC]*eT*eA*eT*dT*dT*dT*dT*dG*dG*d[5mC]*dT*dA*dT*eA*eG*eA*eA*eA; antisense) [ISIS 227501] | at least 45%
atagaaatgttgtcaggctg (eA*eT*eA*eG*eA*dA*dA*dT*dG*dT*dT*dG*dT*d[5mC]*dA*eG*eG*e[5mC]*eT*eG; antisense) [ISIS 272351] | at least 45%
gatgcactttttggcatctg (eG*eA*eT*eG*e[5mC]*dA*d[5mC]*dT*dT*dT*dT*dT*dG*dG*d[5mC]*eA*eT*e[5mC]*eT*eG; antisense) [ISIS 272330] | at least 45%
gaggctatagatcttatctc (eG*eA*eG*eG*e[5mC]*dT*dA*dT*dA*dG*dA*dT*d[5mC]*dT*dT*eA*eT*e[5mC]*eT*e[5mC]; antisense) [ISIS 272341] | at least 45%
agattgtgttcacctcctct (eA*eG*eA*eT*eT*dG*dT*dG*dT*dT*d[5mC]*dA*d[5mC]*d[5mC]*dT*e[5mC]*e[5mC]*eT*e[5mC]*eT; antisense) [ISIS 272320] | at least 45%
ataatggcttatgtggccac (eA*eT*eA*eA*eT*dG*dG*d[5mC]*dT*dT*dA*dT*dG*dT*dG*eG*e[5mC]*e[5mC]*eA*e[5mC]; antisense) [ISIS 272353] | at least 45%
ttctgtggtgatgtaaatgt (eT*eT*e[5mC]*eT*eG*dT*dG*dG*dT*dG*dA*dT*dG*dT*dA*eA*eA*eT*eG*eT; antisense) [ISIS 227482] | at least 45%
aggctttctgtggtgatgta (eA*eG*eG*e[5mC]*eT*dT*dT*d[5mC]*dT*dG*dT*dG*dG*dT*dG*eA*eT*eG*eT*eA; antisense) [ISIS 227483] | at least 45%
tatgtcattggcattgaaat (eT*eA*eT*eG*eT*d[5mC]*dA*dT*dT*dG*dG*d[5mC]*dA*dT*dT*eG*eA*eA*eA*eT; antisense) [ISIS 272324] | at least 45%
aagaaaggctaaggcatgat (eA*eA*eG*eA*eA*dA*dG*dG*d[5mC]*dT*dA*dA*dG*dG*d[5mC]*eA*eT*eG*eA*eT; antisense) [ISIS 272334] | at least 45%
gcatgattttgttcagttgg (eG*e[5mC]*eA*eT*eG*dA*dT*dT*dT*dT*dG*dT*dT*d[5mC]*dA*eG*eT*eT*eG*eG; antisense) [ISIS 227490] | at least 45%
ggacatccctgccttattct (eG*eG*eA*e[5mC]*eA*dT*d[5mC]*d[5mC]*d[5mC]*dT*dG*d[5mC]*d[5mC]*dT*dT*eA*eT*eT*e[5mC]*eT; antisense) [ISIS 272327] | at least 45%
actttttggcatctgcctca (eA*e[5mC]*eT*eT*eT*dT*dT*dG*dG*d[5mC]*dA*dT*d[5mC]*dT*dG*e[5mC]*e[5mC]*eT*e[5mC]*eA; antisense) [ISIS 272329] | at least 45%
tcagggcattctttccattc (eT*e[5mC]*eA*eG*eG*dG*d[5mC]*dA*dT*dT*d[5mC]*dT*dT*dT*d[5mC]*e[5mC]*eA*eT*eT*e[5mC]; antisense) [ISIS 227452] | at least 45%
ggcattgtccataaggaagt (eG*eG*e[5mC]*eA*eT*dT*dG*dT*d[5mC]*d[5mC]*dA*dT*dA*dA*dG*eG*eA*eA*eG*eT; antisense) [ISIS 272328] | at least 45%
tgctaaggatagctgctgtg (eT*eG*e[5mC]*eT*eA*dA*dG*dG*dA*dT*dA*dG*d[5mC]*dT*dG*e[5mC]*eT*eG*eT*eG; antisense) [ISIS 272304] | at least 45%
cctttaatctttggaactgg (e[5mC]*e[5mC]*eT*eT*eT*dA*dA*dT*d[5mC]*dT*dT*dT*dG*dG*dA*eA*e[5mC]*eT*eG*eG; antisense) [ISIS 227464] | at least 45%
aggctgttgtgaaatagtaa (eA*eG*eG*e[5mC]*eT*dG*dT*dT*dG*dT*dG*dA*dA*dA*dT*eA*eG*eT*eA*eA; antisense) [ISIS 272350] | at least 45%
